# Results are given in words; binding and its absence hold for the method and conditions named. For some assays here: In cells and extracts the contact can be indirect. Some binding calls cover weakened binding; strength is not graded here. Tags and fused reporters may be left off the sequences shown.
# Amino acid sequences for entries named in this document (tags omitted).
# UniProt Q9SZ06: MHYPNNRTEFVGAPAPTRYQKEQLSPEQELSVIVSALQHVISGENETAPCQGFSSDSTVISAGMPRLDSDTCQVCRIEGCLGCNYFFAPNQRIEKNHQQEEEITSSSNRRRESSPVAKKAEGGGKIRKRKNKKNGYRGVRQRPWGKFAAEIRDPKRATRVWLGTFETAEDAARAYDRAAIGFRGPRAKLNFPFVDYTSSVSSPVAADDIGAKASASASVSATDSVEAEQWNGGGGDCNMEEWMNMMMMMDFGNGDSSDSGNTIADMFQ
# UniProt Q58G47: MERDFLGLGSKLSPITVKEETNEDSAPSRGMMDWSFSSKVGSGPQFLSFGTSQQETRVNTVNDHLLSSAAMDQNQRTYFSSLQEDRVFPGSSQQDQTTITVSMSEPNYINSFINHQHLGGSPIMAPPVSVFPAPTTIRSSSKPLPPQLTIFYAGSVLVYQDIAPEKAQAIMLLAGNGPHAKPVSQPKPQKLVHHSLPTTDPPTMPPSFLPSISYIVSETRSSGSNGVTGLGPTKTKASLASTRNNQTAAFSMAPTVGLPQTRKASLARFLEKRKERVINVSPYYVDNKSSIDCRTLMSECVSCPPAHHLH
# T1: nYFP-JAZ10 (Arabidopsis thaliana) (UniProt Q93ZM9)
# T1 sequence: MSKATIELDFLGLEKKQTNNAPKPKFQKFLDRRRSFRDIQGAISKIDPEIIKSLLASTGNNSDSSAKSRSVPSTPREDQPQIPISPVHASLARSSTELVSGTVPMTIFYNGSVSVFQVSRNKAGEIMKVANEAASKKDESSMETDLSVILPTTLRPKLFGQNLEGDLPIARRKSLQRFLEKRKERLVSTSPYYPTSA
# T2: Strep-MYB51 (Arabidopsis thaliana) (UniProt O49782)
# T2 sequence: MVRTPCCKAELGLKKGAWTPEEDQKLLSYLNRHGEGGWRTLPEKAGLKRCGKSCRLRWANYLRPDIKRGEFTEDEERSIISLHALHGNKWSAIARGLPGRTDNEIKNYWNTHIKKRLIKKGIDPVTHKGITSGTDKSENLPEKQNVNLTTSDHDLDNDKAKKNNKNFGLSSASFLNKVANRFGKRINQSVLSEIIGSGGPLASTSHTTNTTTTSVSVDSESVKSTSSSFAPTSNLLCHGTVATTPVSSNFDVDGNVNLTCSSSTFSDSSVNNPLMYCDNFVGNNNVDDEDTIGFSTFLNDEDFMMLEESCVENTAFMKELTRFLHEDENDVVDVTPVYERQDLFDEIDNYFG
# T3: JAZ8 fused to the GAL4 BD (Arabidopsis thaliana) (UniProt Q8LBM2)
# T3 sequence: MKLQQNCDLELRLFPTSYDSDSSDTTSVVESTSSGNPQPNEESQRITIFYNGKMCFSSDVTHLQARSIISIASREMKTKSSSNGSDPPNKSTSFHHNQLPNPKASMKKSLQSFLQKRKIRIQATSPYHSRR
# T4: JAZ10 fused to the GAL4 BD (Arabidopsis thaliana) (UniProt Q93ZM9)
# T4 sequence: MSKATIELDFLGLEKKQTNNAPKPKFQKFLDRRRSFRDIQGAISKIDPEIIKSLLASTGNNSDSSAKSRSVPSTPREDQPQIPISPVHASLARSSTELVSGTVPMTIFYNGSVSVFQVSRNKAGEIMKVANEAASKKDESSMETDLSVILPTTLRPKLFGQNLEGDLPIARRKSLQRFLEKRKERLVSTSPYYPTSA
# T5: JAZ3 fused to the GAL4 BD (Arabidopsis thaliana) (UniProt Q9LVI4)
# T5 sequence: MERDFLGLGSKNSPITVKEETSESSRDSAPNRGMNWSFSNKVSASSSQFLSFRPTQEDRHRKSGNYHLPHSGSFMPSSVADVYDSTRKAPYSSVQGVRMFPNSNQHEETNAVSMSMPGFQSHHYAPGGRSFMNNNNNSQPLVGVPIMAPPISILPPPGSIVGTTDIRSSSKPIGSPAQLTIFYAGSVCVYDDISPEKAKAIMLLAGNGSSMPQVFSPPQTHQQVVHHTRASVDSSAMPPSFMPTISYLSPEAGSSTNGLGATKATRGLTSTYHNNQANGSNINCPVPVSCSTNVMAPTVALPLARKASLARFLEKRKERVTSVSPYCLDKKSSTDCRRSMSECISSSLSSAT
# T6: JAZ11 fused to the GAL4 BD (Arabidopsis thaliana) (UniProt Q9M246)
# T6 sequence: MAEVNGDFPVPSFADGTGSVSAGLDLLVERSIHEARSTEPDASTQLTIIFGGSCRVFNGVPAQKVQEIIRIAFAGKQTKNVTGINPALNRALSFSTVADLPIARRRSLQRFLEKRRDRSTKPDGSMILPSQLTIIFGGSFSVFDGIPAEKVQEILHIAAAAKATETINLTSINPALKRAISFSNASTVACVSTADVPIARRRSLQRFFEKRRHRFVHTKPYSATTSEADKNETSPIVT
# T7: JAZ7 fused to the GAL4 BD (Arabidopsis thaliana) (UniProt O64687)
# T7 sequence: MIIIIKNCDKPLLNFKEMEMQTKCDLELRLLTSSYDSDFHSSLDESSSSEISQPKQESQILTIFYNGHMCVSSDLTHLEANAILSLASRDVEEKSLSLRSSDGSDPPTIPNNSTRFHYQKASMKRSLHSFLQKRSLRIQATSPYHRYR
# T8: JAZ9 fused to the GAL4 BD (Arabidopsis thaliana) (UniProt Q8W4J8)
# T8 sequence: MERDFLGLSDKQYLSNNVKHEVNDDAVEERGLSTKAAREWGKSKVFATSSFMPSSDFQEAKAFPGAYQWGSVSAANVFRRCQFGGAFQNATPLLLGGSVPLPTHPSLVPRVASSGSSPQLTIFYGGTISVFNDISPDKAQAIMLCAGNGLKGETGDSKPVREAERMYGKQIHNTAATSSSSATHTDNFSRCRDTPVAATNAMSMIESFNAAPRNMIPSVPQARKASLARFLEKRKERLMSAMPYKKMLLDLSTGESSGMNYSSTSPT
# What was measured:
# [1] = target: ERF109 fused to the GAL4 BD (Arabidopsis thaliana) (UniProt Q9SZ06); assay: two-hybrid
# [2] = target: T1, nYFP-JAZ10 (Arabidopsis thaliana); assay: split reporter
# [3] = target: T2, Strep-MYB51 (Arabidopsis thaliana); assay: pull-down
# [4] = target: T3, JAZ8 fused to the GAL4 BD (Arabidopsis thaliana); assay: two-hybrid
# [5] = target: T4, JAZ10 fused to the GAL4 BD (Arabidopsis thaliana); assay: two-hybrid
# [6] = target: JAZ4 fused to the GAL4 BD (Arabidopsis thaliana) (UniProt Q58G47); assay: two-hybrid
# [7] = target: T5, JAZ3 fused to the GAL4 BD (Arabidopsis thaliana); assay: two-hybrid
# [8] = target: T6, JAZ11 fused to the GAL4 BD (Arabidopsis thaliana); assay: two-hybrid
# [9] = target: T7, JAZ7 fused to the GAL4 BD (Arabidopsis thaliana); assay: two-hybrid
# [10] = target: T8, JAZ9 fused to the GAL4 BD (Arabidopsis thaliana); assay: two-hybrid
binder,measurement,setting,value
"BPM3 (yeast two-hybrid fusion) (protein, UniProt O22286 1-408) MSTVGGIEQLIPDSVSTSFIETVNGSHQFTIQGYSLAKGMSPGKFIQSDIFSVGGYDWAIYFYPDGKNPEDQSSYISLFIALASDSNDIRALFELTLMDQSGKGKHKVHSHFDRALEGGPYTLKYKGSMWGYKRFFKRSALETSDYLKDDCLVINCTVGVVRARLEGPKQYGIVLPLSNMGQGLKDLLDSEVGCDIAFQVGDETYKAHKLILAARSPVFRAQFFGPIGNNNVDRIVIDDIEPSIFKAMLSFIYTDVLPNVHEITGSTSASSFTNMIQHLLAAADLYDLARLKILCEVLLCEKLDVDNVATTLALAEQHQFLQLKAFCLEFVASPANLGAVMKSEGFKHLKQSCPTLLSELLNTVAAADKSSTSGQSNKKRSASSVLGCDTTNVRQLRRRTRKEVRAVS",binding,[1],binds
"unfused MYB51 (yeast three-hybrid bridge) (protein, UniProt O49782 1-352) MVRTPCCKAELGLKKGAWTPEEDQKLLSYLNRHGEGGWRTLPEKAGLKRCGKSCRLRWANYLRPDIKRGEFTEDEERSIISLHALHGNKWSAIARGLPGRTDNEIKNYWNTHIKKRLIKKGIDPVTHKGITSGTDKSENLPEKQNVNLTTSDHDLDNDKAKKNNKNFGLSSASFLNKVANRFGKRINQSVLSEIIGSGGPLASTSHTTNTTTTSVSVDSESVKSTSSSFAPTSNLLCHGTVATTPVSSNFDVDGNVNLTCSSSTFSDSSVNNPLMYCDNFVGNNNVDDEDTIGFSTFLNDEDFMMLEESCVENTAFMKELTRFLHEDENDVVDVTPVYERQDLFDEIDNYFG",binding,[1],binds
"MYB51-cYFP (protein, UniProt O49782 1-352) MVRTPCCKAELGLKKGAWTPEEDQKLLSYLNRHGEGGWRTLPEKAGLKRCGKSCRLRWANYLRPDIKRGEFTEDEERSIISLHALHGNKWSAIARGLPGRTDNEIKNYWNTHIKKRLIKKGIDPVTHKGITSGTDKSENLPEKQNVNLTTSDHDLDNDKAKKNNKNFGLSSASFLNKVANRFGKRINQSVLSEIIGSGGPLASTSHTTNTTTTSVSVDSESVKSTSSSFAPTSNLLCHGTVATTPVSSNFDVDGNVNLTCSSSTFSDSSVNNPLMYCDNFVGNNNVDDEDTIGFSTFLNDEDFMMLEESCVENTAFMKELTRFLHEDENDVVDVTPVYERQDLFDEIDNYFG",binding,[2],binds
"HA-JAZ10 (protein, UniProt Q93ZM9 1-197) MSKATIELDFLGLEKKQTNNAPKPKFQKFLDRRRSFRDIQGAISKIDPEIIKSLLASTGNNSDSSAKSRSVPSTPREDQPQIPISPVHASLARSSTELVSGTVPMTIFYNGSVSVFQVSRNKAGEIMKVANEAASKKDESSMETDLSVILPTTLRPKLFGQNLEGDLPIARRKSLQRFLEKRKERLVSTSPYYPTSA",binding,[3],binds
"MYB51 fused to the GAL4 AD (protein, UniProt O49782 1-352) MVRTPCCKAELGLKKGAWTPEEDQKLLSYLNRHGEGGWRTLPEKAGLKRCGKSCRLRWANYLRPDIKRGEFTEDEERSIISLHALHGNKWSAIARGLPGRTDNEIKNYWNTHIKKRLIKKGIDPVTHKGITSGTDKSENLPEKQNVNLTTSDHDLDNDKAKKNNKNFGLSSASFLNKVANRFGKRINQSVLSEIIGSGGPLASTSHTTNTTTTSVSVDSESVKSTSSSFAPTSNLLCHGTVATTPVSSNFDVDGNVNLTCSSSTFSDSSVNNPLMYCDNFVGNNNVDDEDTIGFSTFLNDEDFMMLEESCVENTAFMKELTRFLHEDENDVVDVTPVYERQDLFDEIDNYFG",binding,[4],no binding
same,binding,[5],binds
same,binding,[6],no binding
same,binding,[7],no binding
same,binding,[8],no binding
same,binding,[9],no binding
same,binding,[10],no binding
